Article PMC10180911
These are yes or no findings as the source states them, for the method shown. For some of these results: Binding seen in cells or lysates may run through a third protein. Some entries that bind do so weakly or less than the wild type. For some of these results: Sequences can lack the tags named with a protein. Each block holds one binder with its values, some of them ahead of it.

What was measured:
[1] = target: T1, maMYB, full-length, MYTH bait (Arabidopsis thaliana) (UniProt Q9ASQ2); assay: two-hybrid; split-ubiquitin MYTH, drop tests of named pairs on permissive (YNB -Leu -Trp) and test medium (YNB -Leu -Trp -Ade -His); strain NMY51; bait plasmid pBT3N, prey plasmid pPR3N
T1 sequence: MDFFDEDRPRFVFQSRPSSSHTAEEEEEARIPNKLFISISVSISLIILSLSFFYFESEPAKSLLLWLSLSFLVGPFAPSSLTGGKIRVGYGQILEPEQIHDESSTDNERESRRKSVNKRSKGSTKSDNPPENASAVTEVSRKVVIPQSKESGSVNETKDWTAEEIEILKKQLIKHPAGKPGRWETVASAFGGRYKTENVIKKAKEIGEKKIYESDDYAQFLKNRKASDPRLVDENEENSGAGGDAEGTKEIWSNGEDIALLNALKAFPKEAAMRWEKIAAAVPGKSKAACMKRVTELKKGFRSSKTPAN

[2] = target: T2, CFP–maMYB (Arabidopsis thaliana) (UniProt Q9ASQ2); assay: FRET or BRET; apFRET in planta; transiently expressed fluorescent protein fusions; FRET efficiency measured in regions of interest at the ER and the NE
T2 sequence: T1 sequence

[3] = target: T3, maMYB–CFP (Arabidopsis thaliana) (UniProt Q9ASQ2); assay: as above
T3 sequence: T1 sequence

B3: SUN3, full-length, MYTH prey (protein, UniProt F4I316 1-660)
chain: MQRSCRTRRRVSVNKFNGRNSFYKVSLSLVFLLWVLLFFSTLLISHGDGAKDEPLNDSMGMADPDDGQSDEKVVPFDGPLSLASASVDVTSDLSRNDDVNLSEESEDKEQEAEISSTVSGNDIESKDTYLLKQSEINKKDTGIDAGSKYDDFPKKSEINNTGTWNDTEGKDDNNFLKQSQLNKTGTGNDTESSDNEFLEQNQMNKTVLGNGTEINVSKVDQPSRAVPLGLDEFKSRASNSRNKSLSDQVSGVIHRMEPGGKEYNYASASKGAKVLSSNKEAKGAASILSRDNDKYLRNPCSTEGKFVVVELSEETLVNTIKIANFEHYSSNLKEFELQGTLVYPTDTWVHMGNFTASNVKHEQNFTLLEPKWVRYLKLNFISHYGSEFYCTLSLIEVYGVDAVERMLEDLISVQDNKNAYKPREGDSEHKEKPMQQIESLEGDDGADKSTHREKEKEAPPENMLAKTEASMAKSSNKLSEPVEEMRHHQPGSRMPGDTVLKILMQKLRSLDLNLSILERYLEELNLRYGNIFKEMDREAGVREKAIVALRLDLEGMKERQEGMVSEAEEMKEWRKRVEAEMEKAEKEKENIRQSLEQVSKRLEWMEKKCLTVFTVCLGFGIIAVIAVVIGMGTGLAEKTGSGAWLLLLISSTFIMFVLSL
- binding [1]: binds

B5: SUN5, full-length, MYTH prey (protein, UniProt F4JPE9 1-561)
chain: MARRGSCSTICLNEKLQRFRIVRISDKADNFNSRSGSFFERSISLVLLLWCFLFLVYSKLGQSHDDYGNADRIGNYTDGSVSKTLNSTSSVFPQATEKENNFCLLRKGQLQDVYEHVLVNNALLICKVVLPERRISKKTLEARDPRYVNLEDKSLKVNGSSQLVNNGTRYRLEPDGNGYNYASAMKGAKVVDHNKEAKGASNVLGKDHDKYLRNPCSVSDKYVVIELAEETLVDTVRIANFEHYSSNPKEFSLSGSLSFPSDMWTPAGSFAAANVKQIQSFRLPEPKWLRYLKLNLVSHYGSEFYCTLSVVEVFGIDALEQMLEDLFVPSETPPSKPAMVELKTADEKQDGEIKSNRTDQIGKETEAQKKKDDVVKTINIIGDKKYEVKEKHNVLKVMMQKVKLIEMNLSLLEDSVKKMNDKQPEVSLEMKKTLVLVEKSKADIREITEWKGKMEKELRDLELWKTLVASRVESLARGNSALRLDVEKIVKEQANLESKELGVLLISLFFVVLATIRLVSTRLWAFLGMSITDKARSLWPDSGWVMILLSSSIMIFIHLLS
- binding [1]: binds weakly

Second part, the binder after the results:

- binding [1]: no binding
B1: SUN4, full-length, MYTH prey (protein, UniProt F4I8I0 1-596)
chain: MQRSRRALLVRRRVSETTSNGRNRFYKVSLSLVFLIWGLVFLSTLWISHVDGDKGRSLVDSVEKGEPDDERADETAESVDATSLESTSVHSNPGLSSDVDIAAAGESKGSETILKQLEVDNTIVIVGNVTESKDNVPMKQSEINNNTVPGNDTETTGSKLDQLSRAVPLGLDEFKSRASNSRDKSLSGQVTGVIHRMEPGGKEYNYAAASKGAKVLSSNKEAKGASSIICRDKDKYLRNPCSTEGKFVVIELSEETLVNTIKIANFEHYSSNLKDFEILGTLVYPTDTWVHLGNFTALNMKHEQNFTFADPKWVRYLKLNLLSHYGSEFYCTLSLLEVYGVDAVERMLEDLISIQDKNILKLQEGDTEQKEKKTMQAKESFESDEDKSKQKEKEQEASPENAVVKDEVSLEKRKLPDPVEEIKHQPGSRMPGDTVLKILMQKIRSLDVSLSVLESYLEERSLKYGMIFKEMDLEASKREKEVETMRLEVEGMKEREENTKKEAMEMRKWRMRVETELEKAENEKEKVKERLEQVLERLEWMEKKGVVVFTICVGFGTIAVVAVVFGMGIVRAEKQGGLAWLLLLISSTFVMFILSL

- binding [2]: no binding
- binding [3]: no binding
B2: SUN4, fluorescent protein fusion for apFRET (protein, UniProt F4I8I0 1-596)
chain: B1 chain

- binding [2]: binds
- binding [3]: binds
B4: YFP–SUN3 (protein, UniProt F4I316 1-660)
chain: B3 chain
